{"source": "PubChem BioAssay AID686943 (Drosophila RNAi Screening Center, 2013)", "aim": "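Search across the genome for regulators of signalling from receptor tyrosine kinase to ERK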 (primary screen)", "cell system": "Drosophila S2R+ haemocyte-like cells expressing YFP-tagged ERK (Rolled)", "knock-down reagent": "long dsRNA against Drosophila genes", "challenge": "insulin stimulation versus unstimulated cells; dose and duration not given", "measurement": "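Per-plate z-scores of phospho-ERK immunostaining normalised to YFP-tagged ERK, measured with and without insulin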", "scale": "replicate 1, z-score of dpERK with insulin and replicate 2, z-score of dpERK with insulin: higher = more active ERK per ERK-YFP after insulin", "note": "In all, the deposit lists about 23,000 reagents; shown is a random part of those with a known target gene and a result. 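Extra replicates exist only for a retested subset of genes; insulin dose and duration not given; both raised and lowered dpERK matter.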 Names joined by + are all predicted targets of the reagent. Further read-outs or replicates are left out here. Not given: the amount of reagent, the time to read-out."}
{"target": "CG42390", "dsRNA": "DRSC15866", "replicate 1, z-score of dpERK with insulin": -0.65, "replicate 2, z-score of dpERK with insulin": -2.44}
{"target": "CG13160", "dsRNA": "DRSC06284", "replicate 1, z-score of dpERK with insulin": 0.87, "replicate 2, z-score of dpERK with insulin": 0.32}
{"target": "f-cup (flyers-cup)", "dsRNA": "DRSC14139", "replicate 1, z-score of dpERK with insulin": 0.26, "replicate 2, z-score of dpERK with insulin": 0.21}
{"target": "CG8861", "dsRNA": "DRSC12731", "replicate 1, z-score of dpERK with insulin": -1.31, "replicate 2, z-score of dpERK with insulin": 0.43}
{"target": "CG8861", "dsRNA": "DRSC16449", "replicate 1, z-score of dpERK with insulin": -0.34, "replicate 2, z-score of dpERK with insulin": 0.6}

2 entries from above, ordered by “replicate 2, z-score of dpERK with insulin”, descending:
{"target": "CG8861", "dsRNA": "DRSC12731", "replicate 1, z-score of dpERK with insulin": -1.31, "replicate 2, z-score of dpERK with insulin": 0.43}
{"target": "f-cup (flyers-cup)", "dsRNA": "DRSC14139", "replicate 1, z-score of dpERK with insulin": 0.26, "replicate 2, z-score of dpERK with insulin": 0.21}

Further results follow.
{"target": "eIF4E3 (eukaryotic translation initiation factor 4E3)", "dsRNA": "DRSC10952", "replicate 1, z-score of dpERK with insulin": -0.05, "replicate 2, z-score of dpERK with insulin": -0.13}
{"target": "CG7272", "dsRNA": "DRSC10795", "replicate 1, z-score of dpERK with insulin": 1.04, "replicate 2, z-score of dpERK with insulin": -0.1}
{"target": "CG1632", "dsRNA": "DRSC17558", "replicate 1, z-score of dpERK with insulin": 0.32, "replicate 2, z-score of dpERK with insulin": -0.69}
{"target": "CG1632", "dsRNA": "DRSC18110", "replicate 1, z-score of dpERK with insulin": 0.36, "replicate 2, z-score of dpERK with insulin": 0}
{"target": "CG17768 + LSm-4", "dsRNA": "DRSC02845", "replicate 1, z-score of dpERK with insulin": -0.02, "replicate 2, z-score of dpERK with insulin": -0.02}
{"target": "Pms2", "dsRNA": "DRSC07511", "replicate 1, z-score of dpERK with insulin": -0.66, "replicate 2, z-score of dpERK with insulin": -0.26}
{"target": "CG3092", "dsRNA": "DRSC04336", "replicate 1, z-score of dpERK with insulin": -0.28, "replicate 2, z-score of dpERK with insulin": 0.5}
